# Results are given in words; binding and its absence hold for the method and conditions named. Binding seen in cells or lysates may run through a third protein. A yes stands for co-enrichment or nearness to the bait. Other partners may have been found.
# Amino acid sequences for entries named in this document (tags omitted).
# UniProt Q13283: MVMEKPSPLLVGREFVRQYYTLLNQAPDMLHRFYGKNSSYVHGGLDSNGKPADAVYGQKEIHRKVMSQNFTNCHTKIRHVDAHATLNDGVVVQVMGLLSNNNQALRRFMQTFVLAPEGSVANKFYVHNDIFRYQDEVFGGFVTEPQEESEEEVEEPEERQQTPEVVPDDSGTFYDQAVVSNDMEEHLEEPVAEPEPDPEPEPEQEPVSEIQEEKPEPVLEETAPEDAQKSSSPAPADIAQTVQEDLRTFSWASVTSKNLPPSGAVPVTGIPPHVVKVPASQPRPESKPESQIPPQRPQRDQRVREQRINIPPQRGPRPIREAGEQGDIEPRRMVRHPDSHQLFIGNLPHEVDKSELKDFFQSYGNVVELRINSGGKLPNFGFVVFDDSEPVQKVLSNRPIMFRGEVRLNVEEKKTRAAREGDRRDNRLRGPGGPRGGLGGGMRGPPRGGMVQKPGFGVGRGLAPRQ
# UniProt Q14258: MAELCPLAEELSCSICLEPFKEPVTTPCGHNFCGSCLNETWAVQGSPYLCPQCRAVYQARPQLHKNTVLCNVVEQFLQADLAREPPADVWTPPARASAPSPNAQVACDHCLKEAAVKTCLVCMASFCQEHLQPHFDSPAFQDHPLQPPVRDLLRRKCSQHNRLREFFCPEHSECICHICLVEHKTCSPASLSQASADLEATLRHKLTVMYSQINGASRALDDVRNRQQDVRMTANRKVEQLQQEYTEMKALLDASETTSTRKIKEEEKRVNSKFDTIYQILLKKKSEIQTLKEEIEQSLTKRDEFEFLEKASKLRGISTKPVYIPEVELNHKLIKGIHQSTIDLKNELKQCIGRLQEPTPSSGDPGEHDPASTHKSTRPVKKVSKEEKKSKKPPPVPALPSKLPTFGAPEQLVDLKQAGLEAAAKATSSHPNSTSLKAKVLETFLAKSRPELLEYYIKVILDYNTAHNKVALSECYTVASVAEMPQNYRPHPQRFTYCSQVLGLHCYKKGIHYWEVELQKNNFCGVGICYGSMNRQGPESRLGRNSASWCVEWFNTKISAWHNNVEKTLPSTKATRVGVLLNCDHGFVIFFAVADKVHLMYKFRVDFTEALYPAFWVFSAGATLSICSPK
# UniProt O00571: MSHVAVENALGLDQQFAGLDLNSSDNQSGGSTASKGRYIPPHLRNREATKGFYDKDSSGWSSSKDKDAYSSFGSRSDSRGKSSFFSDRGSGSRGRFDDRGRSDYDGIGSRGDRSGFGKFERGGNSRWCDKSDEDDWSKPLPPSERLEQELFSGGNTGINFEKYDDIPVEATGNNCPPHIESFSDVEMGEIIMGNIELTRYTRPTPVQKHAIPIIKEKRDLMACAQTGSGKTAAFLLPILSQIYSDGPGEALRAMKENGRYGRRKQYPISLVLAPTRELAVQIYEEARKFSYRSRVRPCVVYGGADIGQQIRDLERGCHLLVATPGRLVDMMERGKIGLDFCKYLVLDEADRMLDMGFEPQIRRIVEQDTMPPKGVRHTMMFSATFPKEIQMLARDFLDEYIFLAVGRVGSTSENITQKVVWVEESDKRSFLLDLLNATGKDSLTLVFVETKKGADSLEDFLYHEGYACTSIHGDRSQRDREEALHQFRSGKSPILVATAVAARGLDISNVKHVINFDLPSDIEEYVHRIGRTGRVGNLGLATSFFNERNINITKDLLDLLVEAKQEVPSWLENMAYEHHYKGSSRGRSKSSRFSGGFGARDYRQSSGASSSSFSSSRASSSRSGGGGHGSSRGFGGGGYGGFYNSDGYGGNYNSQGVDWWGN
# UniProt Q9UBN7: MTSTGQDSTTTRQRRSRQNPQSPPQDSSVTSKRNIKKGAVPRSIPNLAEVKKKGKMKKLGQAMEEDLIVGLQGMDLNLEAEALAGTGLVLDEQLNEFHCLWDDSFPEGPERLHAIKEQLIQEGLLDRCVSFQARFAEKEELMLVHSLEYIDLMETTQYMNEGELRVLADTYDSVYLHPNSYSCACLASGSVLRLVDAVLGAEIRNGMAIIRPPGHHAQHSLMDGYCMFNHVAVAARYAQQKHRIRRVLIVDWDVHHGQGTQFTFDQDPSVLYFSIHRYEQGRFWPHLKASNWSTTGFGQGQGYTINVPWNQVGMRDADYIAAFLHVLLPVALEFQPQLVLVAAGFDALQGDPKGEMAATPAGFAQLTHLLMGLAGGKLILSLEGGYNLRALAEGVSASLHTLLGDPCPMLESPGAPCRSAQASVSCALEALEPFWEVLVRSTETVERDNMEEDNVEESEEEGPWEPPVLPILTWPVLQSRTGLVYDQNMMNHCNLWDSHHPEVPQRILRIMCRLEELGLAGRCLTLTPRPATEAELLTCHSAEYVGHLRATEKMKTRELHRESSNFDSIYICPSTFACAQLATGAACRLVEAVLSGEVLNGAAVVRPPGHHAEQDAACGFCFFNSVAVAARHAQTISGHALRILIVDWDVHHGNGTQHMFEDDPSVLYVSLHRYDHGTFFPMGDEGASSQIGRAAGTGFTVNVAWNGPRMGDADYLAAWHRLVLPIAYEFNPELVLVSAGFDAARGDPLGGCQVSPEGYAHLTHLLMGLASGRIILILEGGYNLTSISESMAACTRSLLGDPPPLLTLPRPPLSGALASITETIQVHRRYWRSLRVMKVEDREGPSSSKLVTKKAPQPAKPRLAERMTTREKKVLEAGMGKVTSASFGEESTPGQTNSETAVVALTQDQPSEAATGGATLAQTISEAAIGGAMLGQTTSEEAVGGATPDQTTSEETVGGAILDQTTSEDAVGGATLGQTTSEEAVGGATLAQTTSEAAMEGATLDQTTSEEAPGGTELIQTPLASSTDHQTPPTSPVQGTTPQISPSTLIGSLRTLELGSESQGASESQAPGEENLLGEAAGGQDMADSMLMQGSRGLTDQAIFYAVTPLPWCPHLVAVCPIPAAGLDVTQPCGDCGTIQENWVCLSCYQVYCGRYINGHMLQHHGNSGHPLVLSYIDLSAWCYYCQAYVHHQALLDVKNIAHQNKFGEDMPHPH
# UniProt Q7Z2W4: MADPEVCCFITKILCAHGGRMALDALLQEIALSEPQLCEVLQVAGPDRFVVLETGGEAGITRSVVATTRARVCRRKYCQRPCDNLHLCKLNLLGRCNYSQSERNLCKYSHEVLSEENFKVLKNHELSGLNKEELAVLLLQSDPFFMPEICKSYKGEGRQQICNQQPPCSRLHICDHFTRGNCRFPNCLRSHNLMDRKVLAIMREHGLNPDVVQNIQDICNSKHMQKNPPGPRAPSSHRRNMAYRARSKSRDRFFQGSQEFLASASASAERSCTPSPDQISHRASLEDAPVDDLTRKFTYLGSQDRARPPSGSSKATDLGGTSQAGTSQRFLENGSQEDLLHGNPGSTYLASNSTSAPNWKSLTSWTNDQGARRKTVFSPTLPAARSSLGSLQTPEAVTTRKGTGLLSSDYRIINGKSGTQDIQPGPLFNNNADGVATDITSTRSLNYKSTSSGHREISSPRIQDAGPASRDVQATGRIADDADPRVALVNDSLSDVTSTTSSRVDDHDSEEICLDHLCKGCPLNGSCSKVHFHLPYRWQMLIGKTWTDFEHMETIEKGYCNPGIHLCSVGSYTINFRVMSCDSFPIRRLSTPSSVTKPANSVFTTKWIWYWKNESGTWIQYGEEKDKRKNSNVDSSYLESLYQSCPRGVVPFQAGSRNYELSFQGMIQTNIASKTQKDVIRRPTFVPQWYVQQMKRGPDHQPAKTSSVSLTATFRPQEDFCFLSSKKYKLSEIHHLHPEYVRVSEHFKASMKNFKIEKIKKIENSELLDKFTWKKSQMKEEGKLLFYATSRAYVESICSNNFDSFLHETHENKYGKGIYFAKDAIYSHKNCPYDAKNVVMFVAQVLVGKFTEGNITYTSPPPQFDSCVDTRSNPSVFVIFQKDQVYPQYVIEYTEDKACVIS
# UniProt Q9Y6M1: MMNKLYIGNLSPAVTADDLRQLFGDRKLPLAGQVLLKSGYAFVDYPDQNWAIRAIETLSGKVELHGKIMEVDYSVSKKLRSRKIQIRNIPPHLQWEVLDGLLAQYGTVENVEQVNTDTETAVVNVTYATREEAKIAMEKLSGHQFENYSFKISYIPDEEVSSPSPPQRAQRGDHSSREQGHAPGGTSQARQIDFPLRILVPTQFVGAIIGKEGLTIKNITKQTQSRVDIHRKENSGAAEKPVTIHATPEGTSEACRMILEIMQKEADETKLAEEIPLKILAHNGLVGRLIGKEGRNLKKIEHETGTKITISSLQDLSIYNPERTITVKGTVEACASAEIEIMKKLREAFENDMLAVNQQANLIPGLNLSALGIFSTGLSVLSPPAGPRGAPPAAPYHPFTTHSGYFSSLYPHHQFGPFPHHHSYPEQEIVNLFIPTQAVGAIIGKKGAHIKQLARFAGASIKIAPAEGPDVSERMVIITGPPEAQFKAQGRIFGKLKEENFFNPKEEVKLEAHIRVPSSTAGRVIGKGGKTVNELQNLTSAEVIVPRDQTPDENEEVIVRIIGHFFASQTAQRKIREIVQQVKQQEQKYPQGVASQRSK
# B1: Zinc-Finger Protein ZCCHC3 (protein, UniProt Q9NUD5 1-403)
# chain: MATGGGAEEERKRGRPQLLPPARPAARGEEADGGREKMGWAQVVKNLAEKKGEFREPRPPRREEESGGGGGSAGLGGPAGLAAPDLGDFPPAGRGDPKGRRRDPAGEAVDPRKKKGAAEAGRRKKAEAAAAAMATPARPGEAEDAAERPLQDEPAAAAGPGKGRFLVRICFQGDEGACPTRDFVVGALILRSIGMDPSDIYAVIQIPGSREFDVSFRSAEKLALFLRVYEEKREQEDCWENFVVLGRSKSSLKTLFILFRNETVDVEDIVTWLKRHCDVLAVPVKVTDRFGIWTGEYKCEIELRQGEGGVRHLPGAFFLGAERGYSWYKGQPKTCFKCGSRTHMSGSCTQDRCFRCGEEGHLSPYCRKGIVCNLCGKRGHAFAQCPKAVHNSVAAQLTGVAGH
# Columns and labels:
# [1] = target: G3BP1-BirA* (human) (UniProt Q13283); test: proximity labelling; G3BP1-BirA* in HEK293T, poly(I:C) versus untreated, 500 μM biotin, streptavidin beads, TMT-based quantitative mass spectrometry
# [2] = target: TRIM25-BirA* (human) (UniProt Q14258); test: proximity labelling; TRIM25-BirA* (WT versus ∆PTFG; poly(I:C) versus untreated) in HEK293T, 500 μM biotin, streptavidin beads, TMT-based quantitative mass spectrometry
# [3] = target: G3BP1-BirA* (human) (UniProt Q13283); test: proximity labelling; proximity labeling assay of TRIM25 and G3BP1 under various stress inducers (poly(I:C), osmotic stress, puromycin, CCCP, MG132, sodium arsenite, thapsigargin) (Fig. S1g)
Molecule,binding [1],binding [2],binding [3]
DDX3X (from UniProt O00571 1-662),binds,,
HDAC6 (from UniProt Q9UBN7 1-1215),binds,,
Zinc-Finger Antiviral Protein ZC3HAV1 (from UniProt Q7Z2W4 1-902),,binds,
endogenous TRIM25 (from UniProt Q14258 1-630),binds,,binds
m6A reader IGF2BP2 (from UniProt Q9Y6M1 1-599),,binds,
B1,,binds,
